This is one part of the list.
compound: CC1=C(SC2=C1C(=N[C@H](C3=NN=C(N32)C)CC(=O)N)C4=CC=C(C=C4)Cl)C; assay: log2 fold change, soluble protein after heating vs DMSO (PISA); higher = thermal stabilisation; K562 cells, 10 uM, 30 min; active = over 0.2 and 3.5 SD of the protein, either way, in both replicates (recomputed)
How it was run: (§1)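 K562 cells at 2×10^6 cells/mL were exposed to 10 μM compound for 30 min, then aliquots were heated for 3 min across 48°C-58°C, pooled, and extracted in PBS containing 0.5% NP-40 at 4°C. The supernatant after 21,000xg for 90 min was taken as soluble protein and measured by TMTpro 16plex LC-MS/MS with channel sums equalised. Thermal stability is reported relative to control samples, with values from duplicates. Fold changes are given on a log2 scale.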

The chains behind the UniProt entries cited, without tags or fusion partners. Where a name states a change or a piece, a line headed by the entry shows the natural chain unless it says otherwise.
UniProt Q9HBF4: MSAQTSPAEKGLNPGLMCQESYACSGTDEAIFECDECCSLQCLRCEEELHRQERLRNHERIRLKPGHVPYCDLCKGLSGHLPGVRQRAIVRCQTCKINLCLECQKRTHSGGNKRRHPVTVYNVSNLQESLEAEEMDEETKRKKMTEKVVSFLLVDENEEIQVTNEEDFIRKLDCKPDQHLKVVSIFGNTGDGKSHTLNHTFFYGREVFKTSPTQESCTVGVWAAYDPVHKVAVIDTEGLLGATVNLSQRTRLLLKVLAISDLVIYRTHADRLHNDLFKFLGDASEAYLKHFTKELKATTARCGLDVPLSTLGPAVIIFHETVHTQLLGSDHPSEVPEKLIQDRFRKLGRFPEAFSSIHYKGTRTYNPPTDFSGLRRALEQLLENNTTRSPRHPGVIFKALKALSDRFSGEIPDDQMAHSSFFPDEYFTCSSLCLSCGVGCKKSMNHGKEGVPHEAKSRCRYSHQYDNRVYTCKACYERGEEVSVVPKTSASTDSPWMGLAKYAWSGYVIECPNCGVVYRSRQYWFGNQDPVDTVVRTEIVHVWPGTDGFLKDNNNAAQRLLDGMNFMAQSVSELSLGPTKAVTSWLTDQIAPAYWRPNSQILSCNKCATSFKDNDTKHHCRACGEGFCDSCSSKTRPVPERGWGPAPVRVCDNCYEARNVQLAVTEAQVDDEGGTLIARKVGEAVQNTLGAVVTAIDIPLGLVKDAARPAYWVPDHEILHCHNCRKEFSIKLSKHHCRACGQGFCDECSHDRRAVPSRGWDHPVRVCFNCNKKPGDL
UniProt Q9Y5A9: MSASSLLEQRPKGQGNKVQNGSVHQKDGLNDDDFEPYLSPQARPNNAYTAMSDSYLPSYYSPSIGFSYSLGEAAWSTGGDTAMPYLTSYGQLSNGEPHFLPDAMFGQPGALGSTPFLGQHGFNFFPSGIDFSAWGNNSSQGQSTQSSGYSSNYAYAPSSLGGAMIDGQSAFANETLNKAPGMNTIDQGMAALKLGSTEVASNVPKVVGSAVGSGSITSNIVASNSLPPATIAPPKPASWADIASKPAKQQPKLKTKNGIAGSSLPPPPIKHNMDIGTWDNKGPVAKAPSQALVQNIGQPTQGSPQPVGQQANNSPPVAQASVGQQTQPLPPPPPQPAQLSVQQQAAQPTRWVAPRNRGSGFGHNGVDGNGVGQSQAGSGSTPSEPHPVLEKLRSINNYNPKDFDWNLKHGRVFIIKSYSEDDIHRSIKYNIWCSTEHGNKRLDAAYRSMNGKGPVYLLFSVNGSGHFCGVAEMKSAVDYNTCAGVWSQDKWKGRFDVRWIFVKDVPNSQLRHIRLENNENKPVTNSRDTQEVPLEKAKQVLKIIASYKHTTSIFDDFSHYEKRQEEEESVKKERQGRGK
UniProt O95619, whole entry, looked up: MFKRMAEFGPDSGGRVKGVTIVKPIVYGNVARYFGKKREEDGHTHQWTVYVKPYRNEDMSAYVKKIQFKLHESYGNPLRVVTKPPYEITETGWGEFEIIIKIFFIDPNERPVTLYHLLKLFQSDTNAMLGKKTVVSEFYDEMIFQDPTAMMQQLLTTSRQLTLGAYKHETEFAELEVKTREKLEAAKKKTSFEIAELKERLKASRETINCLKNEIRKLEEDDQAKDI
UniProt Q9C0B5: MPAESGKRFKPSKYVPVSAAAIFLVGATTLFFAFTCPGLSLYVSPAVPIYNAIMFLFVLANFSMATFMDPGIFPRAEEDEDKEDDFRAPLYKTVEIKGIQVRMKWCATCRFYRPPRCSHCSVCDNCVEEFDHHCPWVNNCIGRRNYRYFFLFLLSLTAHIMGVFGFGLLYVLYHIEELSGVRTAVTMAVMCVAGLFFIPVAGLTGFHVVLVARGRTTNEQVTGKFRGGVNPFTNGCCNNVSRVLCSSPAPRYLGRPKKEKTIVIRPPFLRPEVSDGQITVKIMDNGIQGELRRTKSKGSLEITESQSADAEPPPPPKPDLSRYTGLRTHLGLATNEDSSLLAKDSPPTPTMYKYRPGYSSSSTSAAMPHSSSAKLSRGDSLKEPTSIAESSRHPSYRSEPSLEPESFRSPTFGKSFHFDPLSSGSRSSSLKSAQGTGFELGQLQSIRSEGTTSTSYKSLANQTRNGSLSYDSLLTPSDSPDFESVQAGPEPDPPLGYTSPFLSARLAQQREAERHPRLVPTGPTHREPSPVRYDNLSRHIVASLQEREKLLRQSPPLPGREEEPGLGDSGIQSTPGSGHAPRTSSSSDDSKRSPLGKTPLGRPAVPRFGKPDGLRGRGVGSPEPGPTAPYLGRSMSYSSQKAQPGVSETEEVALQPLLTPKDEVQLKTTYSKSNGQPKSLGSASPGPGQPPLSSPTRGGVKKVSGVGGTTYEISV
UniProt Q9H0D6: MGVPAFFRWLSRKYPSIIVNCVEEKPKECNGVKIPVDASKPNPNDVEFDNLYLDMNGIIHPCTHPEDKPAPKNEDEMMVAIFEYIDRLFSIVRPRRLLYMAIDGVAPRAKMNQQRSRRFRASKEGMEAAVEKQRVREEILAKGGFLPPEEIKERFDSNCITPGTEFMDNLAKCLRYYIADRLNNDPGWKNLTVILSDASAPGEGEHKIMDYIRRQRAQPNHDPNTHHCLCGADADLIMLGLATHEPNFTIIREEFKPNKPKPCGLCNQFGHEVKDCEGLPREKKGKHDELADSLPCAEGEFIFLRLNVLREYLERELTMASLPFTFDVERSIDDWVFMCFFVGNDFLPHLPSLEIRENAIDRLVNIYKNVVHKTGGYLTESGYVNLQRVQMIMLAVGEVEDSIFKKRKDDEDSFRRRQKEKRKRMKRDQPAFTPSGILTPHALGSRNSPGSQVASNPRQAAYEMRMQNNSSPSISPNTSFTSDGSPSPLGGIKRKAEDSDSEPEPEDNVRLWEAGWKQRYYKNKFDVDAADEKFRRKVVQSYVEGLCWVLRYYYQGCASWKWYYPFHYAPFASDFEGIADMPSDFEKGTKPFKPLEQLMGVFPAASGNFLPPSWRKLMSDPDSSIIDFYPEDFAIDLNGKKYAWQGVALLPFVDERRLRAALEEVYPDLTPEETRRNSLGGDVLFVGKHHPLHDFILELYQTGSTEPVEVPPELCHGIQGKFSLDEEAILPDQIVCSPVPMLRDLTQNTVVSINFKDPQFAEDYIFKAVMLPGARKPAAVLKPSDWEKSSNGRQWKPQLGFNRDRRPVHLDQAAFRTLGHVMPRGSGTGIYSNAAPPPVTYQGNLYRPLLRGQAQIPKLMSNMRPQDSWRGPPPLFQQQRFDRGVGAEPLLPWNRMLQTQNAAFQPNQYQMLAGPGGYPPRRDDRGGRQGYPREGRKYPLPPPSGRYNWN
UniProt O43298: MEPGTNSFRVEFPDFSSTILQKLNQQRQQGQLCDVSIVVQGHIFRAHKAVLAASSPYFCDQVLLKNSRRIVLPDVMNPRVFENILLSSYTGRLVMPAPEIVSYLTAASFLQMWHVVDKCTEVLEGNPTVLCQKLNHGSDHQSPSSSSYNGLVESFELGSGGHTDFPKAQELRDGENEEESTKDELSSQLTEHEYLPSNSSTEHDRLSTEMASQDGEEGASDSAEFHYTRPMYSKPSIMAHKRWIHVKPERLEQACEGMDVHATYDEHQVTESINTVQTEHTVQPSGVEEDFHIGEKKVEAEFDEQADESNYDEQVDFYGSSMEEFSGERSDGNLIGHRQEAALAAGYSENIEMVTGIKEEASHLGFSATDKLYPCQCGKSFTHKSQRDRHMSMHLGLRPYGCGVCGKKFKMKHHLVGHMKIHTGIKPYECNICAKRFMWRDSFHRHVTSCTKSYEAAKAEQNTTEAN
UniProt O15498: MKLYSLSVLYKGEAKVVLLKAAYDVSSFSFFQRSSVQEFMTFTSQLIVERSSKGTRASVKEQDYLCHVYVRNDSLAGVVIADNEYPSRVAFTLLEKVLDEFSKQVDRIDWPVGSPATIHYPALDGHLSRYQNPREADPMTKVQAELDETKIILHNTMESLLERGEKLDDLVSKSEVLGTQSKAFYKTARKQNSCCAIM
UniProt Q9UBH6: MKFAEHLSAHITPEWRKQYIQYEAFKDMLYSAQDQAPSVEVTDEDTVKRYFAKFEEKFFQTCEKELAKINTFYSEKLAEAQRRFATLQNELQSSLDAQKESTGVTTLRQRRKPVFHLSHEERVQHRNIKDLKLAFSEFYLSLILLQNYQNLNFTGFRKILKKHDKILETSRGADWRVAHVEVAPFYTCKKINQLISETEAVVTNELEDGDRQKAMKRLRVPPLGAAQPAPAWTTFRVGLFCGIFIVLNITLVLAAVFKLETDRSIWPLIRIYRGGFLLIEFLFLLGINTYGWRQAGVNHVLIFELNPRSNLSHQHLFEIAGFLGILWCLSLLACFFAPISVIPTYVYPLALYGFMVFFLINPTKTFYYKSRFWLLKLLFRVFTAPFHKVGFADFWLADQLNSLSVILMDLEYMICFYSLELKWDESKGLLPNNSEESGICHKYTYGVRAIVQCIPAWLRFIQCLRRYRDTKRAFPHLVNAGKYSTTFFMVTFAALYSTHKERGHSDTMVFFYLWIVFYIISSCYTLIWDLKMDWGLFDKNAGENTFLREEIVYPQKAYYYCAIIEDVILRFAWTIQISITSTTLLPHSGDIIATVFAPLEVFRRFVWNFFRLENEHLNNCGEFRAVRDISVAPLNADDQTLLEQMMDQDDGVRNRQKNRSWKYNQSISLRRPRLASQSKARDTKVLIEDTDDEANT
UniProt Q9ULJ3: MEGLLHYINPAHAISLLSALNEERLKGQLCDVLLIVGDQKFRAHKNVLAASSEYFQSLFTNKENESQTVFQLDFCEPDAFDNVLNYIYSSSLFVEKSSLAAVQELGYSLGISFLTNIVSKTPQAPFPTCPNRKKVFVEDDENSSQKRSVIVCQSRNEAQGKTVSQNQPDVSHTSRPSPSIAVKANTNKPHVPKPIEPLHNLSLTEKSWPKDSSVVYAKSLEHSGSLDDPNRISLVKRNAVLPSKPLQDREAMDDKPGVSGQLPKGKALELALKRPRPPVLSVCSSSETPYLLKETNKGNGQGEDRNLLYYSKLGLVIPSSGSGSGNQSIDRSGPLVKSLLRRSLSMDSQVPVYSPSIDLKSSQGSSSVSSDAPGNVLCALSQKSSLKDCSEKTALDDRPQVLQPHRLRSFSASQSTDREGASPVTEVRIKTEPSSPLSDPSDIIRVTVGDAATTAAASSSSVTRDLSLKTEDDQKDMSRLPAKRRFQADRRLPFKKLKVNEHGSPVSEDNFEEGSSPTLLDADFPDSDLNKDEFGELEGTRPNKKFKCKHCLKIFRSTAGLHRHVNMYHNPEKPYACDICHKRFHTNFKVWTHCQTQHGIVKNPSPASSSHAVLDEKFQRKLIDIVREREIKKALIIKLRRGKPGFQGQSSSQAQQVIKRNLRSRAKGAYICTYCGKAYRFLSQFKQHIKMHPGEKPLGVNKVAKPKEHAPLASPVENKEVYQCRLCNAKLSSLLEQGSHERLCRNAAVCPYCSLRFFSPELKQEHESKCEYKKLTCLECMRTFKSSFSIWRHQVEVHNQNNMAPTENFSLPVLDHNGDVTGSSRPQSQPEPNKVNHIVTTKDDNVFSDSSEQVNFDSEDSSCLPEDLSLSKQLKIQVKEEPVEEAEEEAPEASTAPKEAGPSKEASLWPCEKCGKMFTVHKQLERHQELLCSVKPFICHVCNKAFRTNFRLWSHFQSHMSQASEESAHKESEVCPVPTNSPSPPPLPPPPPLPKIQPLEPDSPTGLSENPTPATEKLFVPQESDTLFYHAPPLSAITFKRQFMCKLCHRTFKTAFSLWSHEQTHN
UniProt P63104: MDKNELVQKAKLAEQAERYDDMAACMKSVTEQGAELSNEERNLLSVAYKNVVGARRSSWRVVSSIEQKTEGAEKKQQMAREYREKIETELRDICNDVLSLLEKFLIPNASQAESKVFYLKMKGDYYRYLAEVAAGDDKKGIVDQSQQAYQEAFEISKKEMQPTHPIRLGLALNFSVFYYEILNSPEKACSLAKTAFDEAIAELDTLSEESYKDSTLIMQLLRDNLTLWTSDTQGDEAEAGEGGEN
UniProt Q9H5J0: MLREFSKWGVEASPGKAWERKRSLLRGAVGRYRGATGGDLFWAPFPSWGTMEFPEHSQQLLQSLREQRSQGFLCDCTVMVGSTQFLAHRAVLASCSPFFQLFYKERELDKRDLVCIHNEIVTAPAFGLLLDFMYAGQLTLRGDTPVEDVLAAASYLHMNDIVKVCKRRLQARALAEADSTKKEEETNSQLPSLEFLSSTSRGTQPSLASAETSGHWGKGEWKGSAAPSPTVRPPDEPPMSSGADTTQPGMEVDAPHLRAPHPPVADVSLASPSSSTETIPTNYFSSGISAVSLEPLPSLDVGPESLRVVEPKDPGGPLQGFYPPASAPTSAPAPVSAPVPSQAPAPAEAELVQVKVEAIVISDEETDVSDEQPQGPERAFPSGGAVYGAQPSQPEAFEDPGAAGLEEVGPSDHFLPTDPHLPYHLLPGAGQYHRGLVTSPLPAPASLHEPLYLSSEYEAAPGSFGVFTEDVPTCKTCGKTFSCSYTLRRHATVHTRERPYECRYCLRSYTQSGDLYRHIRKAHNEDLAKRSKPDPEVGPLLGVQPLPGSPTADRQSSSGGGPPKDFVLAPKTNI

Q: YAE1 (UniProt Q9NRH1) was tested. Which log2 fold change did it give?
A: Its log2 fold change is inactive: -0.111.

Q: With ZDHHC20 (UniProt Q5W0Z9) as the target, how does the log2 fold change read?
A: The log2 fold change was inactive: -0.001.

Q: How did the log2 fold change turn out when YTHDF3 (UniProt Q7Z739) was run?
A: Its log2 fold change is inactive: 0.024.

Q: With XXYLT1 (UniProt Q8NBI6) as the target, how does the log2 fold change read?
A: Its log2 fold change is inactive: 0.045.

Q: Which log2 fold change does the source give for XRCC4 (UniProt Q13426) here?
A: The log2 fold change was inactive: -0.014.

Q: Which log2 fold change does the source give for ZC3H4 (UniProt Q9UPT8) here?
A: The log2 fold change was inactive: -0.176.

Q: Which log2 fold change does the source give for ZFYVE1 (UniProt Q9HBF4) here?
A: The log2 fold change was inactive: -0.017.

Q: YTHDF2 (UniProt Q9Y5A9) was tested. Which log2 fold change did it give?
A: The log2 fold change was inactive: 0.004.

Q: With YEATS4 (UniProt O95619) as the target, how does the log2 fold change read?
A: The log2 fold change was inactive: -0.015.

Q: With ZDHHC5 (UniProt Q9C0B5) as the target, how does the log2 fold change read?
A: Its log2 fold change is inactive: 0.007.

Q: XRN2 (UniProt Q9H0D6) was tested. Which log2 fold change did it give?
A: The log2 fold change was inactive: -0.033.

Q: Which log2 fold change does the source give for ZBTB43 (UniProt O43298) here?
A: Its log2 fold change is inactive: 0.013.

Q: With ZFPL1 (UniProt O95159) as the target, how does the log2 fold change read?
A: Its log2 fold change is inactive: 0.084.

Q: With ZDHHC14 (UniProt Q8IZN3) as the target, how does the log2 fold change read?
A: Its log2 fold change is inactive: 0.036.

Q: YME1L1 (UniProt Q96TA2) was tested. Which log2 fold change did it give?
A: Its log2 fold change is inactive: -0.039.

Q: Which log2 fold change does the source give for YKT6 (UniProt O15498) here?
A: The log2 fold change was inactive: 0.012.

Q: With XRCC5 (UniProt P13010) as the target, how does the log2 fold change read?
A: Its log2 fold change is inactive: -0.019.

Q: With XPR1 (UniProt Q9UBH6) as the target, how does the log2 fold change read?
A: Its log2 fold change is inactive: 0.037.

Q: For ZFAND5 (UniProt O76080), which log2 fold change is on record?
A: The log2 fold change was inactive: -0.21.

Q: With ZBTB21 (UniProt Q9ULJ3) as the target, how does the log2 fold change read?
A: The log2 fold change was inactive: -0.152.

Q: With YBX3 (UniProt P16989) as the target, how does the log2 fold change read?
A: The log2 fold change was inactive: -0.191.

Q: For ZNF143 (UniProt P52747), which log2 fold change is on record?
A: The log2 fold change was inactive: -0.013.

Q: How did the log2 fold change turn out when YES1 (UniProt P07947) was run?
A: Its log2 fold change is inactive: -0.056.

Q: With XPO1 (UniProt O14980) as the target, how does the log2 fold change read?
A: The log2 fold change was inactive: 0.053.

Q: YWHAG (UniProt P61981) was tested. Which log2 fold change did it give?
A: Its log2 fold change is inactive: -0.036.

Q: With YWHAZ (UniProt P63104) as the target, how does the log2 fold change read?
A: Its log2 fold change is inactive: 0.035.

Q: How did the log2 fold change turn out when ZC3H13 (UniProt Q5T200) was run?
A: Its log2 fold change is inactive: 0.008.

Q: YRDC (UniProt Q86U90) was tested. Which log2 fold change did it give?
A: The log2 fold change was inactive: 0.063.

Q: ZMYM1 (UniProt Q5SVZ6) was tested. Which log2 fold change did it give?
A: The log2 fold change was inactive: 0.082.

Q: ZBTB3 (UniProt Q9H5J0) was tested. Which log2 fold change did it give?
A: Its log2 fold change is inactive: 0.141.

compound: CC1=C2C(=CC=C1)N=C(N(C2=O)C3=CC=CC=C3C)CN4C=NC5=C(N=CN=C54)N; assay: as above
How it was run: as §1

Q: How did the log2 fold change turn out when YAE1 (UniProt Q9NRH1) was run?
A: Its log2 fold change is inactive: 0.016.

Q: For ZDHHC20 (UniProt Q5W0Z9), which log2 fold change is on record?
A: Its log2 fold change is inactive: -0.047.

Q: YTHDF3 (UniProt Q7Z739) was tested. Which log2 fold change did it give?
A: Its log2 fold change is inactive: 0.081.

Q: XXYLT1 (UniProt Q8NBI6) was tested. Which log2 fold change did it give?
A: The log2 fold change was inactive: 0.102.

Q: XRCC4 (UniProt Q13426) was tested. Which log2 fold change did it give?
A: The log2 fold change was inactive: 0.058.

Q: With ZC3H4 (UniProt Q9UPT8) as the target, how does the log2 fold change read?
A: Its log2 fold change is inactive: -0.162.

Q: For ZFYVE1 (UniProt Q9HBF4), which log2 fold change is on record?
A: The log2 fold change was inactive: 0.119.

Q: With YTHDF2 (UniProt Q9Y5A9) as the target, how does the log2 fold change read?
A: Its log2 fold change is inactive: -0.038.

Q: With YEATS4 (UniProt O95619) as the target, how does the log2 fold change read?
A: Its log2 fold change is inactive: -0.007.

Q: With ZDHHC5 (UniProt Q9C0B5) as the target, how does the log2 fold change read?
A: Its log2 fold change is inactive: 0.04.

Q: XRN2 (UniProt Q9H0D6) was tested. Which log2 fold change did it give?
A: The log2 fold change was inactive: 0.004.

Q: With ZBTB43 (UniProt O43298) as the target, how does the log2 fold change read?
A: Its log2 fold change is inactive: 0.055.

Q: For ZFPL1 (UniProt O95159), which log2 fold change is on record?
A: Its log2 fold change is inactive: 0.063.

Q: With ZDHHC14 (UniProt Q8IZN3) as the target, how does the log2 fold change read?
A: The log2 fold change was inactive: 0.177.

Q: YME1L1 (UniProt Q96TA2) was tested. Which log2 fold change did it give?
A: Its log2 fold change is inactive: 0.021.

Q: YKT6 (UniProt O15498) was tested. Which log2 fold change did it give?
A: The log2 fold change was inactive: 0.025.

Q: How did the log2 fold change turn out when XRCC5 (UniProt P13010) was run?
A: Its log2 fold change is inactive: 0.095.

Q: With XPR1 (UniProt Q9UBH6) as the target, how does the log2 fold change read?
A: Its log2 fold change is inactive: 0.042.

Q: How did the log2 fold change turn out when ZFAND5 (UniProt O76080) was run?
A: Its log2 fold change is inactive: -0.129.

Q: Which log2 fold change does the source give for ZBTB21 (UniProt Q9ULJ3) here?
A: Its log2 fold change is inactive: 0.058.

Q: Which log2 fold change does the source give for YBX3 (UniProt P16989) here?
A: Its log2 fold change is inactive: -0.123.

Q: ZNF143 (UniProt P52747) was tested. Which log2 fold change did it give?
A: The log2 fold change was inactive: -0.022.

Q: For YES1 (UniProt P07947), which log2 fold change is on record?
A: Its log2 fold change is inactive: 0.126.

Q: XPO1 (UniProt O14980) was tested. Which log2 fold change did it give?
A: Its log2 fold change is inactive: 0.044.

Q: For YWHAG (UniProt P61981), which log2 fold change is on record?
A: Its log2 fold change is inactive: -0.076.

Q: With YWHAZ (UniProt P63104) as the target, how does the log2 fold change read?
A: Its log2 fold change is inactive: -0.031.

Q: Which log2 fold change does the source give for ZC3H13 (UniProt Q5T200) here?
A: Its log2 fold change is inactive: 0.313.

Q: For YRDC (UniProt Q86U90), which log2 fold change is on record?
A: Its log2 fold change is inactive: 0.111.

Q: ZMYM1 (UniProt Q5SVZ6) was tested. Which log2 fold change did it give?
A: Its log2 fold change is inactive: -0.144.

Q: ZBTB3 (UniProt Q9H5J0) was tested. Which log2 fold change did it give?
A: The log2 fold change was inactive: 0.164.

From the supplement of paper PMC10849652
